Source: publication PMC7819943, “Rice protein-binding microarrays: a tool to detect cis-acting elements near promoter regions in rice”
Some of the results follow.

Biological target: T1, OsSMF1 (Oryza sativa, UniProt Q6ZLB0 1-436)
T1 sequence: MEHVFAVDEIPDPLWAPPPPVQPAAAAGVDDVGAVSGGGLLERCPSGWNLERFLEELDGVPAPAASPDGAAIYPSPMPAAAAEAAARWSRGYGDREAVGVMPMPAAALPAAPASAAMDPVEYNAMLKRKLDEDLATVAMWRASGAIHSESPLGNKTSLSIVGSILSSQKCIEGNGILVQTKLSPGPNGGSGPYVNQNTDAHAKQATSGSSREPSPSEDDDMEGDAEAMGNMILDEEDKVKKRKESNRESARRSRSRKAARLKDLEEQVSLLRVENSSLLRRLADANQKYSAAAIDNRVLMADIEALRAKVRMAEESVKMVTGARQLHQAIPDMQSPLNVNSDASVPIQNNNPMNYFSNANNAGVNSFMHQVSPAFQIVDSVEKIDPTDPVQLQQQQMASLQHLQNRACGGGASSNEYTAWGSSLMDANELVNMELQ
Assay: protein-binding microarray (RPBM); PBS, 2% BSA, 51.3 ng/ul salmon testes DNA, 50 uM zinc acetate, 200 nM TF, 25 C, 1 h; high values mean tight binding
Conditions: protein: recombinant; tags: N-terminal polyhistidine and DsRed monomer fusion (pET32a); chain copies: 2; label: CyDye5-dUTP incorporated in the synthesized complementary strand; 3' TTTTT single-stranded linker to array surface; dsDNA, one strand shown
In short: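 For the binding signal, per-feature fluorescence intensity was read in arbitrary units on an Axon 4000B scanner. Before scanning, a 2% BSA-blocked custom Agilent array made double-stranded with Cy5-dUTP was washed after 1 h at 25 °C with 200 nM protein and 50 µM zinc acetate. The proteins were Ni–NTA-purified transcription factors with N-terminal polyhistidine and DsRed fusions, expressed in E. coli BL21-CodonPlus.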

First: AAACTCACATTTGATTGCAATTTGCTGCAACGTGTACAGTCGGAGTCACCTAGTGCAG
Second: CATCGCTCCATCTCATTTTCATTGTTCATCTGTTTGCATTCGGAGTCACCTAGTGCAG
The binding signal of the first is lower: 4260 fluorescence intensity (a.u.) for the first, 21700 fluorescence intensity (a.u.) for the second.

Going from “TTATAGAGCATATGGTAATTGTGCATCATATGATATTAGGCGGAGTCACCTAGTGCAG” to “ATGTTCTACTAGTACACACTATCGTGTTGCAAATGCTTGGCGGAGTCACCTAGTGCAG”, the binding signal rises from 15600 fluorescence intensity (a.u.) to 32700 fluorescence intensity (a.u.).

Going from “TCTGTTCGAACCCTTGTTGACGCTGTAGGTTTCCCATTCCCGGAGTCACCTAGTGCAG” to “GAGAGGAGAGGGAGAGAAGGGAGGCGCGTGATTCGATCGACGGAGTCACCTAGTGCAG”, the binding signal rises from 3990 fluorescence intensity (a.u.) to 4850 fluorescence intensity (a.u.).

First: CACGTCGTACCCACTCGTCCTCGGCTCCTCGCGCGGTCACCGGAGTCACCTAGTGCAG
Second: GGGTTAAACAACGGAAAGAAAAGGCTGACGCGTGGGTCCCCGGAGTCACCTAGTGCAG
The binding signal of the first is lower: 3400 fluorescence intensity (a.u.) for the first, 3910 fluorescence intensity (a.u.) for the second.

First: AGTCACACTCCGGCCCGCACTTACGTCATAATCCCGTTCCCGGAGTCACCTAGTGCAG
Second: TTTGTTTTCTACTTAATTGACCATACTCCAGTCCTACTCCCGGAGTCACCTAGTGCAG
The binding signal of the first is lower: 9050 fluorescence intensity (a.u.) for the first, 38000 fluorescence intensity (a.u.) for the second.

“CATCTAATTTAAATTTAAATGTTTTAAAAGATAGAGACGTCGGAGTCACCTAGTGCAG” and “CACCTCGTCGCCGGGCTCCCACTGCGGCCTCGTCGCCGGCCGGAGTCACCTAGTGCAG” are the same in binding signal: 24500 fluorescence intensity (a.u.) for the first, 24500 fluorescence intensity (a.u.) for the second.

First: TGGGAGTAATGCGATACCACATCACCATTTACTCCTATTGCGGAGTCACCTAGTGCAG
Second: TCCTTGCTCCATCAGTATTACACCACCCAACACAAGCTCACGGAGTCACCTAGTGCAG
The binding signal of the first is lower: 3210 fluorescence intensity (a.u.) for the first, 30400 fluorescence intensity (a.u.) for the second.

Compared with “GCACCCACTTAGCGAGCTTCACGCGCACGTACGCATGGCACGGAGTCACCTAGTGCAG”, “CAATTGGGATCGCGACTCACGTTCTGACTAAGGTACTGGCCGGAGTCACCTAGTGCAG” is higher in binding signal: 3400 fluorescence intensity (a.u.) for the first, 5320 fluorescence intensity (a.u.) for the second.

Compared with “TAGGGATGTGACCGGTTGACGCGTTGGATGAAGAGGAAGTCGGAGTCACCTAGTGCAG”, “GTACTCCGTACTAGTAGTGGCACTCAATGTTCGGTATCTGCGGAGTCACCTAGTGCAG” is higher in binding signal: 4760 fluorescence intensity (a.u.) for the first, 50200 fluorescence intensity (a.u.) for the second.

Going from “GGAGGTTAAATGCTGTGGCAAAATAGTTTGGAGGAGCGAACGGAGTCACCTAGTGCAG” to “ACGAGCCCACGAGGTTGATGACGACGAAGCCGAAGAGTTGCGGAGTCACCTAGTGCAG”, the binding signal rises from 3300 fluorescence intensity (a.u.) to 4660 fluorescence intensity (a.u.).

First: GGAAGTGCTCTCCCATTTTCTATCATCAGAAAGGTATAGGCGGAGTCACCTAGTGCAG
Second: AGCGCCGGCCATAGCTCGCGGGGTGTTGCAATCGCTGCTACGGAGTCACCTAGTGCAG
The binding signal of the first is lower: 3750 fluorescence intensity (a.u.) for the first, 14500 fluorescence intensity (a.u.) for the second.

First: CAACGAAATATATGGTGGGGACACGTGGCAGCACAAGGGCCGGAGTCACCTAGTGCAG
Second: TACTAATGTTATTACACGTATTGCCATTTGATTTATTGTTCGGAGTCACCTAGTGCAG
The binding signal of the first is higher: 29100 fluorescence intensity (a.u.) for the first, 6090 fluorescence intensity (a.u.) for the second.

Compared with “CTCCACACACCCCGCCACATCCGCCTCTGCGCGACTGCGCCGGAGTCACCTAGTGCAG”, “ACCGCCCGGCAGAAAAGCCTCTTCAGCCTCCGCCACGCAACGGAGTCACCTAGTGCAG” is lower in binding signal: 3740 fluorescence intensity (a.u.) for the first, 3370 fluorescence intensity (a.u.) for the second.

First: ACAGCCGGGCGGCTGCCACGCTAGCTGCCTCTCCCCTTCCCGGAGTCACCTAGTGCAG
Second: GAACCCTAACTGCGCCATCACATCGATCTACCTCCCCTTACGGAGTCACCTAGTGCAG
The binding signal of the first is higher: 4840 fluorescence intensity (a.u.) for the first, 3650 fluorescence intensity (a.u.) for the second.

Compared with “TAGCTAGGCATAGTGACAACACACTCACTCCCCTCATTTCCGGAGTCACCTAGTGCAG”, “GGGAGGAAGAATGGTCGGCGTGGGTCCTCGCTTGCACGGACGGAGTCACCTAGTGCAG” is lower in binding signal: 3640 fluorescence intensity (a.u.) for the first, 3280 fluorescence intensity (a.u.) for the second.

First: GCGCCAGTCAACTAAAATCATGCCATGGCCACACGTAGTCCGGAGTCACCTAGTGCAG
Second: CACAGGCAGGCCTGCAACATGCGTCACGCAGACTTTGATGCGGAGTCACCTAGTGCAG
The binding signal of the first is lower: 3350 fluorescence intensity (a.u.) for the first, 4140 fluorescence intensity (a.u.) for the second.

Compared with “CTGCTTGTACCAGCATGCCGCTATTGTCGTGCGTGTGACCCGGAGTCACCTAGTGCAG”, “TGAAACGGAGGGAGTATTATTAATATCTTAAGATGGACGACGGAGTCACCTAGTGCAG” is higher in binding signal: 3680 fluorescence intensity (a.u.) for the first, 6690 fluorescence intensity (a.u.) for the second.

Going from “TGACCCAGCAAGCAAGAAACTCCTCCAGCGTCTAGTCACCCGGAGTCACCTAGTGCAG” to “AACCGCTCCTCCTCCTCTTCTCCGCGTCCCCACCACGTGCCGGAGTCACCTAGTGCAG”, the binding signal rises from 3830 fluorescence intensity (a.u.) to 3890 fluorescence intensity (a.u.).

Going from “GTAGGGAACACACGTATAACTTTCTGACAGTCACACACTGCGGAGTCACCTAGTGCAG” to “TGAGTACTCCTGGTCTACTCCATTGCGTGTGGCTTGTCTGCGGAGTCACCTAGTGCAG”, the binding signal rises from 3300 fluorescence intensity (a.u.) to 3940 fluorescence intensity (a.u.).

Compared with “TGGGCCGCCCCTGGAGGCAAGGTAGCCGGATCCGTCATGTCGGAGTCACCTAGTGCAG”, “GGACCTAGAGTACCGAGTGAGGATTATCATATAATAGATTCGGAGTCACCTAGTGCAG” is higher in binding signal: 3510 fluorescence intensity (a.u.) for the first, 19300 fluorescence intensity (a.u.) for the second.

Going from “TCACCTTTGACGGGTCATACGGGATGCCGTCATCGGTGAGCGGAGTCACCTAGTGCAG” to “TCTCTTCATAATGATATTGCCATGTCATCAAATTTGTTTGCGGAGTCACCTAGTGCAG”, the binding signal rises from 3180 fluorescence intensity (a.u.) to 13200 fluorescence intensity (a.u.).

First: AATTTCTTCAAACAGATAAGGATATACGTGGCGATAGTTTCGGAGTCACCTAGTGCAG
Second: CCCGCCAGACCCGATGGAGACTACTTCCTCTCCATTTGATCGGAGTCACCTAGTGCAG
The binding signal of the first is lower: 5050 fluorescence intensity (a.u.) for the first, 5180 fluorescence intensity (a.u.) for the second.

First: AGTGCTTTATTTTGCTGATTCATTGTTAAAATTGCCTCTACGGAGTCACCTAGTGCAG
Second: GAGATTAGAGAGAGAGGGAAGGGAACACCGACCCGCATCGCGGAGTCACCTAGTGCAG
The binding signal of the first is higher: 5500 fluorescence intensity (a.u.) for the first, 4560 fluorescence intensity (a.u.) for the second.

First: GGAGTTGCCCTTAATGGCGGTGACGTCGGATACAGTGCTTCGGAGTCACCTAGTGCAG
Second: CCAATTTGACGTGAAATGTTTAGATGATCTCTTGCCAGTACGGAGTCACCTAGTGCAG
The binding signal of the first is higher: 9140 fluorescence intensity (a.u.) for the first, 3150 fluorescence intensity (a.u.) for the second.

Going from “CTGTCGCTGTGCAGACGTTGCTAACACCGGCGGGAATCTTCGGAGTCACCTAGTGCAG” to “TGTTTCATCGACCGGTCTGGCCACGTGTCGTTGGACGATCCGGAGTCACCTAGTGCAG”, the binding signal rises from 3210 fluorescence intensity (a.u.) to 12800 fluorescence intensity (a.u.).

Compared with “TAGTTTCGCTAGTTGACAGATCATCACAATGCAAATGAAGCGGAGTCACCTAGTGCAG”, “AAGGAGAGATGAGAAAGACAAGCCACGTTAGCGAAAACCGCGGAGTCACCTAGTGCAG” is higher in binding signal: 3900 fluorescence intensity (a.u.) for the first, 5060 fluorescence intensity (a.u.) for the second.

First: CAATTCTAGTGACGATCCGAGCGTCATATCTGCCTAGTTACGGAGTCACCTAGTGCAG
Second: GCAGCCTGGTCAGCCAGCCAGACAGCCCGCACCCACGCGGCGGAGTCACCTAGTGCAG
The binding signal of the first is higher: 4740 fluorescence intensity (a.u.) for the first, 3750 fluorescence intensity (a.u.) for the second.
